PubChem BioAssay AID624297 (National Center for Advancing Translational Sciences (NCATS), 2012)
Screen size: about 340,000 compounds; about 6,200 (1.8%) were called active. Inconclusive results, whose numbers are uncertain, are shown with a selection of clear calls. The call rests on the fitted dose curve; in most records, active means well fitted activation curve with a large enough effect; inconclusive means small, poorly fitted or top-dose-only effect; inactive means no such curve, though single readings can be large or run the other way. Where the call is inconclusive, the potency comes from a doubtful curve fit.

test: A quantitative high throughput screen for small molecules that induce DNA re-replication in SW480 colon adenocarcinoma cells.; further: nearly all actives have a fitted effect of over 55% in size; on re-replication activation: % of control where 0% means no effect; details: Hoechst DNA content imaging, 48 h; re-replication activation: at 46.1 µM (top of the series) unless noted
In short: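 DNA re-replication was detected as more nuclei of elevated Hoechst intensity after 48 hr exposure to compound (23 nL pinned per well of 250 cells).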
Potency means the concentration at half of the fitted maximal effect.

Q: With `CCC(=O)N1N=C(c2ccccc2)CC1c1ccc([N+](=O)[O-])cc1` (stereo not drawn) as the molecule, how does the Potency read?
A: Its Potency is inconclusive: 1.64 µM [activator, partial curve, poor fit].

Q: Which Potency does the source give for `CN(C)CCCN(C(=O)c1ccc(S(=O)(=O)N2CCOCC2)cc1)c1nc2cc3c(cc2s1)OCO3` here?
A: Its Potency is inconclusive: 3.26 µM [activator, single point].

Q: Which Potency does the source give for `COc1ccc(-c2ccc3c(c2)S(=O)(=O)c2cccc(C(=O)N4CCN(c5c(Cl)cncc5Cl)CC4)c2C3=O)cc1OC` here?
A: Its Potency is inconclusive: 29.1 µM [activator, single point].

Q: Which Potency does the source give for `C=CCOC(=O)C(C#N)c1nc2ccccc2nc1N1CCN(Cc2ccc3c(c2)OCO3)CC1` (stereo not drawn) here?
A: The Potency was “inactive”.

Q: With `Cc1ccc(C2=Nc3c(ccc4ccccc34)C(c3ccncc3)=NN2)cc1` as the molecule, how does the Potency read?
A: The Potency was active: 18.4 µM.

Q: Which Potency does the source give for `COC1=CC2(O)CCCC2=CC1=O` (stereo not drawn) here?
A: Its Potency is inconclusive: 0.731 µM [activator, full curve].

Q: With `CC1(C)Oc2ccc3ccc(=O)oc3c2C[C@H]1O` as the molecule, how does the Potency read?
A: The Potency was “inactive”.

Q: For `Cc1onc(-c2c(F)cccc2Cl)c1C(=O)ONC(=O)c1ccco1`, which Potency is on record?
A: The Potency was “inactive”.

Q: Which Potency does the source give for `CCOC(=O)c1cnc(-c2ccccc2O)nc1Cl` here?
A: Its Potency is “inactive”.

Q: For `O=C(CCNC(=O)c1ccco1)Nc1ccccc1`, which Potency is on record?
A: Its Potency is “inactive”.

Q: For `COc1ccc2[nH]c3c(c2c1)CCC/C3=N\N`, which Potency is on record?
A: Its Potency is inconclusive: 23.1 µM [activator, partial curve, poor fit].

Q: Which Potency does the source give for `COc1cc(C(C(=O)NCc2ccccc2)N(Cc2ccco2)C(=O)c2cnccn2)cc(OC)c1OC` (stereo not drawn) here?
A: Its Potency is “inactive”.

Q: With `COc1ccc(NC(=O)CN(Cc2ccco2)Cc2ccco2)cc1S(=O)(=O)N1CCCCC1` as the molecule, how does the Potency read?
A: Its Potency is “inactive”.

Q: Which Potency does the source give for `CCn1c(=O)c([N+](=O)[O-])c(N2CCSCC2)c2ccccc21` here?
A: Its Potency is “inactive”.

Q: For `O=C(CN1CCCCCC1)Nc1c(Cl)cc(Cl)cc1Cl`, which Potency is on record?
A: Its Potency is inconclusive: 18.4 µM [activator, single point].

Q: For `CN(C)c1nc(NCc2ccccc2)nc(SCC(=O)Nc2ccc(Cl)c(Cl)c2)n1`, which Potency is on record?
A: The Potency was inconclusive: 29.1 µM [activator, single point].

Q: Which Potency does the source give for `O=C(NN=Cc1ccccc1OC(F)F)c1ccc(NS(=O)(=O)c2cccs2)cc1` here?
A: Its Potency is inconclusive: 29.1 µM [activator, single point].

Q: For `Cc1ccc(Cn2c(=N)c(C(=O)NC3CCCCC3)cc3c(=O)n4ccccc4nc32)cc1`, which Potency is on record?
A: The Potency was active: 2.31 µM.

Q: For `NC(=O)CCCn1c(C(=O)c2cc(Cl)c(N)c(Cl)c2)c2ccc(C(F)(F)F)cc2[n+]1[O-]`, which Potency is on record?
A: The Potency was “inactive”.

Q: Which Potency does the source give for `Cn1c(N)c(C(=O)COC(=O)c2ccc(-c3ccccc3)cc2)c(=O)n(C)c1=O` here?
A: Its Potency is “inactive”.

Q: For `COc1ccc(N2CC(C(=O)Nc3ccc4c(c3)OCCO4)CC2=O)cc1` (stereo not drawn), which Potency is on record?
A: Its Potency is inconclusive: 29.1 µM [activator, single point].

Q: Which Potency does the source give for `COc1ccc(/C=C2\N=C(SC)N(c3ccccc3OC)C2=O)cc1` here?
A: The Potency was active: 18.4 µM.

Q: Which Potency does the source give for `C=CCn1c(C)cc(C2=NNC(=NCC)SC2)c1C` here?
A: Its Potency is “inactive”.

Q: With `Cn1cnnc1SCC(=O)Nc1ccc(Cl)c(S(=O)(=O)N2CCOCC2)c1` as the molecule, how does the Potency read?
A: Its Potency is “inactive”.

Q: Which Potency does the source give for `CCN(CC)c1ncnc2c1ncn2Cc1c(Cl)cccc1Cl` here?
A: Its Potency is inconclusive: 11.6 µM [activator, partial curve, poor fit].

Q: For `C=CCCCCCCCCC(=O)O`, which Potency is on record?
A: Its Potency is “inactive”.

Q: With `Cc1ccc2nc(Nc3nc(CSc4nnc(C)s4)cc(=O)[nH]3)nc(C)c2c1` as the molecule, how does the Potency read?
A: The Potency was inconclusive: 25.9 µM [activator, single point].

Q: Which Potency does the source give for `CC(C)NC(=O)Cn1nnc(-c2cccc(NC(=O)c3ccccc3F)c2)n1` here?
A: Its Potency is inconclusive: 29.1 µM [activator, single point].

Q: For `CC(=O)N1CCN(C(=O)c2ccc(NS(=O)(=O)c3ccc(Cl)c(Cl)c3)cc2)CC1`, which Potency is on record?
A: The Potency was inconclusive: 1.16 µM [activator, partial curve, poor fit].

Q: Which Potency does the source give for `COc1ccc(-c2cc(-c3c(O)c(OC)c4occc4c3OC)[nH]n2)cc1` here?
A: Its Potency is inconclusive: 29.1 µM [activator, single point].

Q: With `CCOC(=O)C1CCCN(C(=O)c2cc(=O)c3ccccc3o2)C1` (stereo not drawn) as the molecule, how does the Potency read?
A: Its Potency is “inactive”.

Q: For `Cc1ccc(NC(=O)c2nc[nH]c2C(=O)N2CCN(C(=O)OC(C)(C)C)CC2)cc1`, which re-replication activation is on record?
A: Its re-replication activation is inactive: -5.83% [at 9.22 µM].

Q: With `CC(=O)N1CCC2(CC1)CC(=O)c1cc(OCC(=O)NCc3ccc(C)cc3)ccc1O2` as the molecule, how does the Potency read?
A: Its Potency is “inactive”.

Q: With `CNc1ncnc2c1ncn2-c1ccccc1` as the molecule, how does the Potency read?
A: The Potency was inconclusive: 3.66 µM [activator, single point].

Q: For `CC(C)N(C(=O)[C@H]1C[C@H](CC(=O)NCC23CC4CC(CC(C4)C2)C3)C(=O)N2CCc3c([nH]c4ccc(Cl)cc34)[C@]12C)C(C)C`, which Potency is on record?
A: The Potency was inconclusive: 16.4 µM [activator, single point].

Q: With `CCN(CC)CCN(C(=O)/C=C/c1cccs1)c1nc2ccc(F)cc2s1` as the molecule, how does the Potency read?
A: The Potency was “inactive”.

Q: Which Potency does the source give for `CC(=O)c1cc(C(C)=O)c(C)nc1C` here?
A: Its Potency is inconclusive: 0.731 µM [activator, full curve, poor fit].

Q: With `COc1cccc(NC(=O)CN(C)C(=O)CNC(=O)c2ccccc2F)c1` as the molecule, how does the Potency read?
A: Its Potency is inconclusive: 23.1 µM [activator, partial curve, poor fit].

Q: With `CC(C)CC(=O)NC(c1ccccc1)c1c(O)ccc2ccccc12` (stereo not drawn) as the molecule, how does the Potency read?
A: The Potency was “inactive”.

Q: Which Potency does the source give for `CC(C)CC(=O)NC(=S)Nc1sc2c(c1C(N)=O)CCC2` here?
A: The Potency was inconclusive: 25.9 µM [activator, partial curve].

Q: Which Potency does the source give for `O=C(CSc1ccccc1)Nc1nc2ccccc2[nH]1` here?
A: The Potency was inconclusive: 29.1 µM [activator, single point].

Q: Which Potency does the source give for `CN(c1ccccc1)S(=O)(=O)c1nnc(NC(=O)COc2ccccc2)s1` here?
A: Its Potency is inconclusive: 8.2 µM [activator, single point].

Q: Which Potency does the source give for `COC(=O)c1cccc(C23CC4(C2)[C@H](CN(Cc2ccc(C(F)(F)F)cc2)[C@@H]4c2ccccc2)C3c2ccccc2)c1` (stereo partly drawn) here?
A: The Potency was inconclusive: 0.731 µM [activator, full curve, poor fit].

Q: With `Cc1ccc(C(=O)Oc2ccc(Cl)c3cccnc23)cc1[N+](=O)[O-]` as the molecule, how does the Potency read?
A: Its Potency is inconclusive: 29.1 µM [activator, single point].

Q: For `Cc1nc2ccc(Br)cn2c1C(=O)N/N=C\c1ccccc1Cl`, which Potency is on record?
A: The Potency was inconclusive: 4.11 µM [activator, partial curve, poor fit].

Q: For `CCOC(=O)c1c(NC(=O)C2=C(C)NC(=S)NC2c2ccccc2C(F)(F)F)sc(C)c1C` (stereo not drawn), which Potency is on record?
A: The Potency was inconclusive: 23.1 µM [activator, single point].

Q: With `CSc1nsc(/C=C/Nc2ccc(C)cc2)c1C#N` as the molecule, how does the Potency read?
A: The Potency was inconclusive: 4.11 µM [activator, single point].

Q: Which Potency does the source give for `COc1c2c(cc3ccc(=O)oc13)CCO2` here?
A: Its Potency is inconclusive: 29.1 µM [activator, single point].

Q: Which Potency does the source give for `O=C(Nc1ncccn1)c1cc(-c2cccc(Br)c2)nc2ccccc12` here?
A: The Potency was “inactive”.

Q: With `CCOC(=O)c1c(NC(=O)CSc2nnc(Cc3csc(N)n3)n2C)sc(C)c1C` as the molecule, how does the Potency read?
A: The Potency was inconclusive: 29.1 µM [activator, single point].

Q: With `O=C(O)c1ccccc1N/N=C/C1=C(N2CCOCC2)C(=C\c2ccccc2)/CC1` as the molecule, how does the Potency read?
A: Its Potency is inconclusive: 18.4 µM [activator, single point].

Q: Which Potency does the source give for `O=C(c1ccc2c(c1)OCO2)N(Cc1ccco1)C1(C(=O)NC2CCCCC2)CCCCC1` here?
A: The Potency was inconclusive: 20.6 µM [activator, partial curve, poor fit].

Q: Which Potency does the source give for `C[C@]12c3[nH]c4ccc(Cl)cc4c3CCN1C(=O)[C@@H](CC(=O)NCc1cccc(C(F)(F)F)c1)C[C@@H]2C(=O)N1CCCCC1` here?
A: Its Potency is inconclusive: 16.4 µM [activator, single point].

Q: Which re-replication activation does the source give for `COCCCNC(=O)c1ccc2c(=O)n(Cc3ccc(Cl)cc3)c(=S)[nH]c2c1` here?
A: The re-replication activation was inconclusive: -75.4% [activator].

Q: With `COc1ccccc1NC(=O)CSc1nnc(-c2ccccn2)o1` as the molecule, how does the Potency read?
A: Its Potency is inconclusive: 29.1 µM [activator, single point].

Q: For `COc1ccc2occ(C(=O)c3coc4ccc(O)c(CN(C)C)c34)c2c1`, which Potency is on record?
A: The Potency was inconclusive: 4.11 µM [activator, single point].

Q: For `Cc1nc(SCC(=O)Nc2ccc(CN3CCCC3)cc2)c2c(C)c(C)sc2n1`, which Potency is on record?
A: The Potency was “inactive”.

Q: For `COc1ccc(S(=O)(=O)Nc2ccc(-n3cnnn3)cc2)cc1Br`, which Potency is on record?
A: The Potency was inconclusive: 0.092 µM [activator, full curve, poor fit].

Q: For `CC(C)CCOc1ccc(C2(C)NC(=O)NC2=O)cc1` (stereo not drawn), which Potency is on record?
A: Its Potency is “inactive”.

Q: For `CN(C(=O)C1CCC(CNS(=O)(=O)c2cccc3cccnc23)CC1)C1CCCCC1` (stereo not drawn), which Potency is on record?
A: Its Potency is inconclusive: 15.8 µM [activator, single point].

Q: For `O=C(Nc1ccc2c(c1)OCO2)c1cc(-c2ccncc2)nc2ccccc12`, which Potency is on record?
A: Its Potency is inconclusive: 29.1 µM [activator, single point].

Q: For `c1ccc(-n2nnnc2Sc2ncnc3sc4c(c23)CCCC4)cc1`, which Potency is on record?
A: The Potency was inconclusive: 29.1 µM [activator, single point].

Q: With `NNc1nc(-c2ccccc2)nc(-c2ccccc2)c1Br` as the molecule, how does the Potency read?
A: The Potency was inconclusive: 6.51 µM [activator, single point].

Q: With `O=C(NCC(=O)N(c1cccc(F)c1)C(C(=O)NC1CCCC1)c1cccnc1)c1cccs1` (stereo not drawn) as the molecule, how does the Potency read?
A: The Potency was “inactive”.

Q: With `COc1ccc(NC(=O)[C@H](C)NC(N)=O)cc1S(=O)(=O)Nc1cc(C)ccc1Br` as the molecule, how does the Potency read?
A: The Potency was “inactive”.

Q: Which Potency does the source give for `CC(=O)O[C@H]1C[C@@]2(O)[C@@H](OC(=O)c3ccccc3)C3[C@@](C)([C@@H](O)C[C@H]4OC[C@@]34OC(C)=O)[C@@H](O)[C@H](OC(C)=O)C(=C1C)C2(C)C` (stereo partly drawn) here?
A: The Potency was inconclusive: 18.4 µM [activator, partial curve, poor fit].

Q: For `O=C1C=CC(=O)N1CCNc1ncc(C(F)(F)F)cc1Cl`, which Potency is on record?
A: Its Potency is active: 8.2 µM.

Q: For `CC(C)(CNC(=O)c1ccc([N+](=O)[O-])c(Cl)c1)CNC(=O)c1ccc([N+](=O)[O-])c(Cl)c1`, which Potency is on record?
A: Its Potency is inconclusive: 23.1 µM [activator, single point].
